Results on one substance are retold here after article doi:10.1101/2024.02.27.582283.

Sequences of proteins named here, by UniProt entry; tags and fusion partners are left off. A change or cut given only in a name is not applied to a line headed by its entry.
UniProt Q9U263: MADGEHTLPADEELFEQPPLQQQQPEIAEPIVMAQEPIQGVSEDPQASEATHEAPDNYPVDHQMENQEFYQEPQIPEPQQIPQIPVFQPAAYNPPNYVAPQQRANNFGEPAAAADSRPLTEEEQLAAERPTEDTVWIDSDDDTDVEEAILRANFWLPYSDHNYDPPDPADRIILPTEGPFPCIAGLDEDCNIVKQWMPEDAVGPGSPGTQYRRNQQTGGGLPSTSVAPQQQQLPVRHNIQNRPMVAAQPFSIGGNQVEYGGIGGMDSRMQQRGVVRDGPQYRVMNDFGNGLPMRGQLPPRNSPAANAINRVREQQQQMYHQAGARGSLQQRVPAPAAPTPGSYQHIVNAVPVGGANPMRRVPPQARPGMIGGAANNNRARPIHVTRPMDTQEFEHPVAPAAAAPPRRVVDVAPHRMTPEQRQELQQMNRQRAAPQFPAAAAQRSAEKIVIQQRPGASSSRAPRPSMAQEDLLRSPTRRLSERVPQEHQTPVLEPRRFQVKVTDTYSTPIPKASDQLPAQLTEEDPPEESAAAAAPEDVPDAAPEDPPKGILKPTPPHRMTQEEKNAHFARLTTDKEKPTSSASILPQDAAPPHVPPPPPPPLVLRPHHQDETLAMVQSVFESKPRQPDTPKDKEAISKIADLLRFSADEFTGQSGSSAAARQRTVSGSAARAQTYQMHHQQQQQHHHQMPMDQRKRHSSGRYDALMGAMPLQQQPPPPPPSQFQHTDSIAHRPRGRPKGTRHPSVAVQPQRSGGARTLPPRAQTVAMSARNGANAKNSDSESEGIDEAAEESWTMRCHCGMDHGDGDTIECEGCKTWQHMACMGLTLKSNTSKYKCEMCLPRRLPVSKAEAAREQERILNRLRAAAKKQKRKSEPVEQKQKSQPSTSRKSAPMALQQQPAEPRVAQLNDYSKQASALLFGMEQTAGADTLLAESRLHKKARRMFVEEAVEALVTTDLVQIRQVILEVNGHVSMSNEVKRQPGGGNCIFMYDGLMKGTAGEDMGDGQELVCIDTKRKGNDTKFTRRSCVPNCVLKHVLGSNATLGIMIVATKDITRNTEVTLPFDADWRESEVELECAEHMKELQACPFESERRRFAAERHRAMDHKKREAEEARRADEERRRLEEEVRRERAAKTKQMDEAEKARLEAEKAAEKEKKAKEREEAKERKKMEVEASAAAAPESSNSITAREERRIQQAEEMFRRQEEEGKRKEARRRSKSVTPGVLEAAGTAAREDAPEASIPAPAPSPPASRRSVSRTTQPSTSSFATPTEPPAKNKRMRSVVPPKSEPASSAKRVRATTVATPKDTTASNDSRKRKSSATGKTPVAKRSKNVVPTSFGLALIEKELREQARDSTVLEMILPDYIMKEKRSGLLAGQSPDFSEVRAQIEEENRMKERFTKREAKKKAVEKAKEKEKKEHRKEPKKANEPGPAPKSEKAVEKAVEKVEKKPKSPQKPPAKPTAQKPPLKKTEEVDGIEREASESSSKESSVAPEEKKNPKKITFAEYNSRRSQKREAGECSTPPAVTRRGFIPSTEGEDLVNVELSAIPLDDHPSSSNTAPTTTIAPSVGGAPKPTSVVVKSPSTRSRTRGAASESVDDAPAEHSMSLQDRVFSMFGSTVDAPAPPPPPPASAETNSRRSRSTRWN
UniProt Q9BL48: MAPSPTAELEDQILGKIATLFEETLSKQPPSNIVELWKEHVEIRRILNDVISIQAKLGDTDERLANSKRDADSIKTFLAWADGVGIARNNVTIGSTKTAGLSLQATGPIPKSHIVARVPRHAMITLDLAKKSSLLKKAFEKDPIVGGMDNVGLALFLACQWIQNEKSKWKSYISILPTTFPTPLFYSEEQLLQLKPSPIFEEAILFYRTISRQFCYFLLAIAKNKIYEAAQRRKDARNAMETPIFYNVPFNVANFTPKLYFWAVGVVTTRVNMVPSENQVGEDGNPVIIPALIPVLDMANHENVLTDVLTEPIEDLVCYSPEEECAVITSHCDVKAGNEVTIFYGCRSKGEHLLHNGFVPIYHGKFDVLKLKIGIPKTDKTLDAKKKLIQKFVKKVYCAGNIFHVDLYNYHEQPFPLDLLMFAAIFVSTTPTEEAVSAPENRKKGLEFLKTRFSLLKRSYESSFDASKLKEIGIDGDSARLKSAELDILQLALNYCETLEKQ

In the experiment the target is SET-26::GFP (WT background) (C. elegans) (UniProt Q9U263). Briefly: affinity purification with mass spectrometry.

No constants are given. Whether binding was seen depends on the method and setting. Binding seen in cells or lysates may run through a third protein. Here binding means that the protein was enriched with, or labelled near, the bait; the list need not be complete.

Regarding “SET-27 (predicted methyltransferase) (from UniProt Q9BL48)”, the binding entry was “binds”.
